Our source for the binding values is PMC3568144, “Pseudomonas aeruginosa PA1006 Is a Persulfide-Modified Protein That Is Critical for Molybdenum Homeostasis” (PLoS ONE, 2013).

Chains of the proteins cited; added tags and fusions are not shown. Lines headed by an entry give the natural chain unless they say otherwise; changes in a name come on top.
UniProt Q9HZH8: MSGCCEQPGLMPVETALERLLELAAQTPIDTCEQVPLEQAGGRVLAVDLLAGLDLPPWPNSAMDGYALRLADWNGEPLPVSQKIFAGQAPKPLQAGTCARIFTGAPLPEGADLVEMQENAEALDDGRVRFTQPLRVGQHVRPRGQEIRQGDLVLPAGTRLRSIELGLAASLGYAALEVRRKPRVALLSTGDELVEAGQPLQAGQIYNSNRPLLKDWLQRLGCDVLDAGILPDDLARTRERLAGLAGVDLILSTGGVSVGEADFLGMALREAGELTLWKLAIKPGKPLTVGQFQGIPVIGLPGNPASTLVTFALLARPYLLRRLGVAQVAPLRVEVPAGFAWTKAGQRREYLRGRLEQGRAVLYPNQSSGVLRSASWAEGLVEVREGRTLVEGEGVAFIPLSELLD
UniProt Q9HX99: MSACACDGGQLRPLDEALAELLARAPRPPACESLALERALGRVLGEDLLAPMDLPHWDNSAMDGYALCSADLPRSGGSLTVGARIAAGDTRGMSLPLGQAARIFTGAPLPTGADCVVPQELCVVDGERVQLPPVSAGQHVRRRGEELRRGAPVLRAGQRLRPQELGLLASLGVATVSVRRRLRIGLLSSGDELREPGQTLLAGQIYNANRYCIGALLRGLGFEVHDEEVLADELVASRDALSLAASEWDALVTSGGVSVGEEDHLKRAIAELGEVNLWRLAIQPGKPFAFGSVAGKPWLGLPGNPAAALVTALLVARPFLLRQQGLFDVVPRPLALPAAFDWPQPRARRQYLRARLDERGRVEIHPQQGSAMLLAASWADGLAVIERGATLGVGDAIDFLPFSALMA
UniProt Q9HX96: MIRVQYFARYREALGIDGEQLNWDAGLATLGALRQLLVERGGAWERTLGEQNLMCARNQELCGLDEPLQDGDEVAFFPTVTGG

What all share (test): split reporter; GFP protein fragment complementation assay (GFP-PFCA) in P. aeruginosa cells; NGFP fusion from pEX1.8 (IPTG), CGFP fusion from the chromosome (arabinose); scored by eye with fluorescence microscopy
Test [1] concerns the target T1, PA1006 (GFP-PFCA fusion in Pae) (Pseudomonas aeruginosa) (UniProt Q9I4W7).
T1 sequence: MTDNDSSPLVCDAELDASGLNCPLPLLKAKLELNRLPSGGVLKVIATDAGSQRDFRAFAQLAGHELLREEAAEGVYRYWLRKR

Test [2] concerns the target T2, PA1505/MoaA2 (GFP-PFCA fusion in Pae) (Pseudomonas aeruginosa) (UniProt Q9I3K7).
T2 sequence: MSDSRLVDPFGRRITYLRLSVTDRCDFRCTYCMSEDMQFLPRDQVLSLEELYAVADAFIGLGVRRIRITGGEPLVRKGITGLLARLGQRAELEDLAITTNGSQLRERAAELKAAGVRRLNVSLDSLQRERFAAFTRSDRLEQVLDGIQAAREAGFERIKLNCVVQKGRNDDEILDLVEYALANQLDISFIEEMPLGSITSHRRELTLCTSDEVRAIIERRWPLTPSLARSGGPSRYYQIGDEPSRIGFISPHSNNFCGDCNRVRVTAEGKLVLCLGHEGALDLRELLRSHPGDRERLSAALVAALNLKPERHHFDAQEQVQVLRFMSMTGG

Test [3] addresses PA3028/MoeA2 (GFP-PFCA fusion in Pae) (Pseudomonas aeruginosa) (UniProt Q9HZH8).
For test [4], the target named is T3, PA3030/MobA (GFP-PFCA fusion in Pae) (Pseudomonas aeruginosa) (UniProt O68799).
T3 sequence: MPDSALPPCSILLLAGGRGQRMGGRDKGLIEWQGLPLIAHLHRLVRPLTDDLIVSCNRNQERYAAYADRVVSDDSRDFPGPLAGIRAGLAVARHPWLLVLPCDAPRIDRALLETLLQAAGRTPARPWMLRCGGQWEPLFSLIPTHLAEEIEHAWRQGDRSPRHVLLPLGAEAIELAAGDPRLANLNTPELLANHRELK

Test [5] addresses T4, PA3870/MoaA1 (GFP-PFCA fusion in Pae) (Pseudomonas aeruginosa) (UniProt Q9HXD6).
T4 sequence: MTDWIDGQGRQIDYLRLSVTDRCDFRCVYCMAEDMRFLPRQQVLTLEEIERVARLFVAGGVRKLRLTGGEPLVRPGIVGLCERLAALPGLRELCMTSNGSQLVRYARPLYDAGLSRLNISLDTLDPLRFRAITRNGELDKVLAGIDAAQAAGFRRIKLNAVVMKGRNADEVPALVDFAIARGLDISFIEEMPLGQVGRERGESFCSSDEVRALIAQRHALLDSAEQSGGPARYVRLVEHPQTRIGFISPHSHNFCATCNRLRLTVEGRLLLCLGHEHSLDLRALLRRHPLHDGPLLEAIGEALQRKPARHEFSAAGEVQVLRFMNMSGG

Test [6] addresses PA3914/MoeA1 (GFP-PFCA fusion in Pae) (Pseudomonas aeruginosa) (UniProt Q9HX99).
Test [7] deals with T5, PA3916/MoaE (GFP-PFCA fusion in Pae) (Pseudomonas aeruginosa) (UniProt Q9HX97).
T5 sequence: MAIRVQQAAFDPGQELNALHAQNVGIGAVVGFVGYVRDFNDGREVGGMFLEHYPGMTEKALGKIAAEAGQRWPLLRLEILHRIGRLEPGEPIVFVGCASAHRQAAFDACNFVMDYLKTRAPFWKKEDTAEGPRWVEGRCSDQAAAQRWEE

The target of test [8] is T6, PA3918/MoaC (GFP-PFCA fusion in Pae) (Pseudomonas aeruginosa) (UniProt Q9HX95).
T6 sequence: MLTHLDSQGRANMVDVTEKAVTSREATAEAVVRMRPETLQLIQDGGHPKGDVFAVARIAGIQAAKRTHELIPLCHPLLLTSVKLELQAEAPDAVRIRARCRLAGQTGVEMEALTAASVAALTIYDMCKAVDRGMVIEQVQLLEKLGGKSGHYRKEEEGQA

These are yes or no findings as the source states them, for the method shown. In cells and extracts the contact can be indirect. Binding calls can cover weak binding; strength is not graded here. For some assays here: Sequences can lack the tags named with a protein.

Regarding “PA3028/MoeA2 (GFP-PFCA fusion in Pae) (from UniProt Q9HZH8)”, in test [1], the binding result is recorded as “binds”.
Still for that read-out and setting: with “PA3668/CsdE (GFP-PFCA fusion in Pae) (Pseudomonas aeruginosa)” the entry was “binds”.
On the same count and under the same terms, with “PA3914/MoeA1 (GFP-PFCA fusion in Pae) (from UniProt Q9HX99)” the entry was “binds”.
As for “PA3917/MoaD (GFP-PFCA fusion in Pae) (from UniProt Q9HX96)”, the binding result in test [1], in test [2], in test [3], in test [4], in test [5] and in test [6] was “binds” throughout. Further, the binding result in test [7] and in test [8] was “binds” in each case.
